Source: article PMC10934892
These are yes or no findings as the source states them, for the method shown. Binding seen in cells or lysates may run through a third protein. A yes stands for co-enrichment or nearness to the bait. Other partners may have been found.

The chains behind the UniProt entries cited, without tags or fusion partners. Residues count along the entry.
UniProt P11021, residues 19-654: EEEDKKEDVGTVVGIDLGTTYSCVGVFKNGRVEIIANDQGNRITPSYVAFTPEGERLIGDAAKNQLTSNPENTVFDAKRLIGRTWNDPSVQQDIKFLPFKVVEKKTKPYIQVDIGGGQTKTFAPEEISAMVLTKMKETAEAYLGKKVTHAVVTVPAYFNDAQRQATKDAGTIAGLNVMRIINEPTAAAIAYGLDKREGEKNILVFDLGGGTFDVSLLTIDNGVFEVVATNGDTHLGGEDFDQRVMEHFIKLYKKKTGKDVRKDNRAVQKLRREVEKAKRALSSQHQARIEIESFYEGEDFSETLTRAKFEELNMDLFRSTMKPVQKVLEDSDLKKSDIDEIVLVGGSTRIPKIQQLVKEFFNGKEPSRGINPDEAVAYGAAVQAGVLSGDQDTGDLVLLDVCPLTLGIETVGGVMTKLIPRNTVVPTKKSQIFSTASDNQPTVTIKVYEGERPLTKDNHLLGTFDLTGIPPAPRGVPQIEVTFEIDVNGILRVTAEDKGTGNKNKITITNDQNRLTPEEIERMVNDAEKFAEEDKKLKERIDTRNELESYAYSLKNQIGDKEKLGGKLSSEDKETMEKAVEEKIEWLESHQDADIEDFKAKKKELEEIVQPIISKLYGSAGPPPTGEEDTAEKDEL

Target: T1, Regulator of ribosome synthesis 1 (RRS1) (human (endogenous in BT-549 and MDA-MB-231)) (UniProt Q15050)
T1 sequence: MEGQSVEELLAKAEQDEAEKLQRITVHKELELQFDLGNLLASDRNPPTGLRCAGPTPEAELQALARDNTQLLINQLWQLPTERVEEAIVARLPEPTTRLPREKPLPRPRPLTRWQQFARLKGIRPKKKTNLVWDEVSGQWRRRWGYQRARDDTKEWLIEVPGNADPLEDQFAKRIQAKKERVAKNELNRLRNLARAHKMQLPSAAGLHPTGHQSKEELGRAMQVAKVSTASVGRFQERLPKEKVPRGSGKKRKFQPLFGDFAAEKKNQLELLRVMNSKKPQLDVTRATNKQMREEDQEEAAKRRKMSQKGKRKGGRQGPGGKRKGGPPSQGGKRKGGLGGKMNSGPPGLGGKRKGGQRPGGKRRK
Assay: affinity purification with mass spectrometry; Co-IP combined with LC-MS/MS (in-gel trypsin digest, Orbitrap Elite); antibody and bait of the IP not stated

Glucose-Regulated Protein 78 (GRP78) (from UniProt P11021 19-654)
binding: binds
